The target in one data set is CSB (UniProt Q03468). Put plainly: EMSA. The conditions noted are these: CSB alone, complexes resolve as smears; 30 mM HEPES pH 7.9, 60 mM NaCl, 6% glycerol, 6 mM MgCl2, 100 uM ZnSO4, 0.02% NP40, 30 C 10 min; 1 nM DNA; 5% native PAGE, 0.5x TBE; recombinant protein; protein details: N-terminal Flag; label: 32P (body label, PCR with 32P-dATP). A general note: A gel shift assay detects complexes by their altered migration in electrophoresis.

Chains of the proteins cited; added tags and fusions are not shown. Lines headed by an entry give the natural chain unless they say otherwise; changes in a name come on top.
UniProt Q03468: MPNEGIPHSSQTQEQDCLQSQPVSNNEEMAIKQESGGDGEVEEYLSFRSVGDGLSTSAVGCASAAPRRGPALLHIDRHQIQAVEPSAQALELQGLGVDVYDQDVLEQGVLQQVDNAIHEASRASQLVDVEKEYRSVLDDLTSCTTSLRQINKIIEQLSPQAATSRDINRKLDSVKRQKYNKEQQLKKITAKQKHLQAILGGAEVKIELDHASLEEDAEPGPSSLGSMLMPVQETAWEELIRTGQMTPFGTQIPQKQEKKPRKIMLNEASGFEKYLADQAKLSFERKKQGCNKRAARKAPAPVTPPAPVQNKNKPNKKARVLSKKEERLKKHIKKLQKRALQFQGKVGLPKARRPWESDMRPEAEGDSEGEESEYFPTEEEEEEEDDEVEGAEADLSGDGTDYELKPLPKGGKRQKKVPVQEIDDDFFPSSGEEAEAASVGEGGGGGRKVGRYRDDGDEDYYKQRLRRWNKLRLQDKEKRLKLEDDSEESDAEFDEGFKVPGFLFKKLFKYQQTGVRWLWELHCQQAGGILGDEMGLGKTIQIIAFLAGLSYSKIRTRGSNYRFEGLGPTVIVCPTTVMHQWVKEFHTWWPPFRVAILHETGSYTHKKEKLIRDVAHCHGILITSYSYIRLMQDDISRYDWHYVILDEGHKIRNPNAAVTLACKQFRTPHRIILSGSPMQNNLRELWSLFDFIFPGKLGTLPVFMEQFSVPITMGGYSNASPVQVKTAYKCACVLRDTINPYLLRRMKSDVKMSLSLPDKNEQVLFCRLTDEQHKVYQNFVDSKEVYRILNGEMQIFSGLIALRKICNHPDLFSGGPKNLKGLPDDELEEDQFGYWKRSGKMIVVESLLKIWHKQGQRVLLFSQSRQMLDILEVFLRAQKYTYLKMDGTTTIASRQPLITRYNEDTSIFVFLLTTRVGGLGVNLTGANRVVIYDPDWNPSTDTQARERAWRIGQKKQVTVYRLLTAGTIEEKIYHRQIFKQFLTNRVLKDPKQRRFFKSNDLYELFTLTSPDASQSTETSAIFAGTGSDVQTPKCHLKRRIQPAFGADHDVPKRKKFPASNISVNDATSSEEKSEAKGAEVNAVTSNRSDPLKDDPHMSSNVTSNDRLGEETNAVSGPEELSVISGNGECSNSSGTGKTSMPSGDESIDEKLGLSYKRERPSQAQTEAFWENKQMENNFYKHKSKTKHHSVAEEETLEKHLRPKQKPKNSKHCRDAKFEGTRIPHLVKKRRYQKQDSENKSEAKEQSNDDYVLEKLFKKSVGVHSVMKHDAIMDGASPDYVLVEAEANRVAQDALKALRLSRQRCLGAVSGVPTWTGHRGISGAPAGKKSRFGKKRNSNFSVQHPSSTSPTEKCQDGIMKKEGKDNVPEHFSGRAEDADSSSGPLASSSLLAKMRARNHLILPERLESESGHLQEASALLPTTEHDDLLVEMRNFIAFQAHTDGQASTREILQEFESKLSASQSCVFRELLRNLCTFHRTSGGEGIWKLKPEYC

In a further data set the test system is MBP. Put plainly: EMSA. Conditions: 100 uM ZnSO4, 6 mM Mg2+; 30 mM HEPES pH 7.9, 60 mM NaCl, 6% glycerol, 6 mM MgCl2, 100 uM ZnSO4, 0.02% NP40, 30 C 10 min; 1 nM DNA; 5% native PAGE, 0.5x TBE; recombinant protein; label: 32P (body label, PCR with 32P-dATP).

The exact form of at least one protein or probe is not confirmed. For some assays here: Negatives hold for the conditions tested. For some assays here: At least one verdict rests on a figure or table, not on a statement of the authors.

We go through one sequence from PMC4797267, “The CSB chromatin remodeler and CTCF architectural protein cooperate in response to oxidative stress”.

“CACACCGAGTTCATCCCTTATGTGATGGACCCTCCACGAGGGGGCCCTGGAGAATCCCGGTGCCGAGGCTGCAGAATTGGTCGTAGACAGCTCTAGCACCGCTTAAACGCACGTACGCGCTGTCCCCCGCGTTTTAACCGCCAAGGGGATTACTCCCTAGTCTCCAGGCACGTGTCAGATATATACATCCTGT (double strand) [200 bp DNA fragment with CTCF-binding site (Fig. S4B)]”: the figures for the binding result with CSB and with MBP were “binds” and “no binding”, respectively.
